Assay results: PubChem BioAssay AID206 (DTP/NCI, 2004)
The list shows only some results of the screen, not a fair sample: it gathers tests that were run many times, whatever their T/C, doses with no T/C, and many T/C values between a quarter and a half above the control. Further doses and runs are listed elsewhere. T/C: endpoint of the treated group in % of that of the vehicle group. Schedules are NCI's codes, read here as Q, the interval in days (D) or hours (H), X, the number of doses. Some doses have a count of surviving animals in place of a T/C: the source files T/C as zero there, which appears to mark a toxic dose or a test without result, not a measured value. Counts of survivors are from the toxicity check (mostly the fifth day) where no day follows; animals may have died later. Some entries hold several experiments; the results are listed from low to high.

Tested on: nude mice, HT29 intrarenal xenograft, tumor weight T/C
Test: NCI In Vivo Anticancer Drug Screen. Data for tumor model HT29;CX-1 Human Adenocarcinoma (MER+) (intrarenal inoculation) in NU/NU Swiss (nude) mice
Settings: T/C endpoint: mean tumor weight change, higher T/C = larger tumour
Procedure, shortened: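 Readout: treated/vehicle-control ratio of the measured endpoint (tumor size or survival) in transplanted-tumor mice.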

[1] = dose: 400.0 mg/kg/injection, schedule: Q01DX010 (sc), vehicle: Klucel (hydroxypropylcellulose) (HPC)
[2] = dose: 800.0 mg/kg/injection, schedule: Q01DX010 (sc), vehicle: Klucel (hydroxypropylcellulose) (HPC)
[3] = dose: 200.0 mg/kg/injection, schedule: Q01DX010 (sc), vehicle: Klucel (hydroxypropylcellulose) (HPC)
[4] = dose: 80.0 mg/kg/injection, schedule: Q04DX004 (sc), vehicle: water
[5] = dose: 160.0 mg/kg/injection, schedule: Q04DX004 (sc), vehicle: water
[6] = dose: 150.0 mg/kg/injection, schedule: Q04DX004 (sc), vehicle: Klucel (hydroxypropylcellulose) (HPC)
[7] = dose: 300.0 mg/kg/injection, schedule: Q04DX004 (sc), vehicle: Klucel (hydroxypropylcellulose) (HPC)

C=C1C(=O)O[C@@H]2[C@H](O)[C@@H](C)[C@@H]3C=CC(=O)[C@@]3(C)[C@H](OC(=O)C=C(C)C)[C@H]12
survivor count (dose: 75.0 mg/kg/injection, schedule: Q04DX004 (sc), vehicle: saline with Tween-80): 1 of 6 on day 15

CC(=O)Nc1ccc(O)c(O)c1
T/C (dose: 1200.0 mg/kg/injection, schedule: Q04DX004 (sc), vehicle: saline with Tween-80, evaluated on day 15): 149 % of control

c1ccc(CN2CCOC2)cc1
survivor count (dose: 200.0 mg/kg/injection, schedule: Q01DX010 (sc), vehicle: suspension in saline): 1 of 3 on day 11

O=c1[nH]c(=O)n([C@H]2CCCO2)cc1F
survivor count [1]: 0 of 3 on day 20 | survivor count [2]: 0 of 3 on day 20

CS(=O)(=O)OCCN(CCOS(C)(=O)=O)c1ccc(C=Nc2ccc(-c3csc(COc4ccccc4)n3)cc2)cc1
survivor count [3]: 1 of 2 on day 11 | survivor count [1]: 0 of 3 on day 11

COc1cccc2c1C(=N)c1c(O)c3c(c(O)c1C2=O)C[C@@](O)(C(C)=O)C[C@@H]3OC1CC(N)C(O)C(C)O1 (some centres undefined)
survivor count (dose: 10.0 mg/kg/injection, schedule: Q04DX004 (sc), vehicle: water): 1 of 2 on day 15 | survivor count (dose: 40.0 mg/kg/injection, schedule: Q04DX004 (sc), vehicle: water): 0 of 1 on day 15 and 0 of 3 on day 15 | survivor count [4]: 0 of 3 on day 15 | survivor count [5]: 0 of 3 on day 15

CN(Cc1cnc2nc(N)nc(N)c2n1)c1c(Cl)cc(C(=O)NC(CCC(=O)O)C(=O)O)cc1Cl (centres undefined)
T/C (dose: 50.0 mg/kg/injection, schedule: Q01DX010 (sc), vehicle: Klucel (hydroxypropylcellulose) (HPC), evaluated on day 11): 148 % of control | survivor count (dose: 100.0 mg/kg/injection, schedule: Q01DX010 (sc), vehicle: Klucel (hydroxypropylcellulose) (HPC)): 1 of 3 on day 11

c1cnc2ncncc2n1
survivor count (dose: 200.0 mg/kg/injection, schedule: Q01DX010 (sc), vehicle: saline with Tween-80): 0 of 3 on day 20

COc1cc([C@@H]2c3cc4c(c(O)c3C[C@H]3COC(=O)[C@@H]32)OCO4)cc(OC)c1OC
survivor count (dose: 16.0 mg/kg/injection, schedule: Q01DX010 (sc), vehicle: saline): 1 of 3 on day 11

CCOC(=O)c1c[nH]c2oc(/C=N/N3CC(CN4CCOCC4)OC3=O)cc2c1=O (centres undefined)
survivor count (dose: 400.0 mg/kg/injection, schedule: Q01DX010 (sc), vehicle: saline): 0 of 3 on day 11

O=C(Nc1ccccc1C(=O)O)c1cc([N+](=O)[O-])cc([N+](=O)[O-])c1
survivor count (dose: 400.0 mg/kg/injection, schedule: Q04DX004 (sc), vehicle: saline with Tween-80): 1 of 6 on day 15

Cc1c2ccc3ccccc3c2c[n+]2ccccc12
survivor count (dose: 37.5 mg/kg/injection, schedule: Q04DX004 (sc), vehicle: Klucel (hydroxypropylcellulose) (HPC)): 1 of 4 on day 15 | survivor count (dose: 75.0 mg/kg/injection, schedule: Q04DX004 (sc), vehicle: Klucel (hydroxypropylcellulose) (HPC)): 0 of 4 on day 15 | survivor count [6]: 0 of 4 on day 15 | survivor count [7]: 0 of 4 on day 15

Nc1ncnc2c1nnn2C1OC(CO)C(O)C1O (centres undefined)
survivor count [6]: 2 of 6 on day 15 | survivor count [7]: 1 of 6 on day 15 | survivor count (dose: 600.0 mg/kg/injection, schedule: Q04DX004 (sc), vehicle: Klucel (hydroxypropylcellulose) (HPC)): 0 of 6 on day 15

CCCCCCCCCCC(OC(C)=O)C1CCC(C2CCC(C(O)CCCCCCCCCCCCC3C=C(C)OC3=O)O2)O1 (centres undefined)
survivor count (dose: 100.0 mg/kg/injection, schedule: Q04DX004 (sc), vehicle: water): 1 of 5 on day 15 | survivor count (dose: 200.0 mg/kg/injection, schedule: Q04DX004 (sc), vehicle: water): 0 of 6 on day 15

O=[Te]=O
survivor count (dose: 100.0 mg/kg/injection, schedule: Q04DX004 (sc), vehicle: Klucel (hydroxypropylcellulose) (HPC)): 0 of 6 on day 15 | survivor count (dose: 200.0 mg/kg/injection, schedule: Q04DX004 (sc), vehicle: Klucel (hydroxypropylcellulose) (HPC)): 0 of 6 on day 15

Nc1nc(=S)c2ncn(C3CC(O)C(CO)O3)c2[nH]1 (centres undefined)
survivor count (dose: 5.0 mg/kg/injection, schedule: Q01DX010 (sc), vehicle: saline with Tween-80): 0 of 3 on day 11 | survivor count (dose: 10.0 mg/kg/injection, schedule: Q01DX010 (sc), vehicle: saline with Tween-80): 0 of 3 on day 11 | survivor count (dose: 15.0 mg/kg/injection, schedule: Q04DX004 (sc), vehicle: saline with Tween-80): 2 of 6 on day 15 | survivor count (dose: 20.0 mg/kg/injection, schedule: Q01DX010 (sc), vehicle: saline with Tween-80): 0 of 3 on day 11 | survivor count (dose: 40.0 mg/kg/injection, schedule: Q01DX010 (sc), vehicle: saline with Tween-80): 0 of 3 on day 11 | survivor count [3]: 0 of 3 on day 11 | survivor count [1]: 0 of 3 on day 11 | survivor count [2]: 0 of 3 on day 11

CN(C)c1nc(N(C)C)nc(N(C)C)n1
survivor count (dose: 240.0 mg/kg/injection, schedule: Q01DX010 (sc), vehicle: saline with Tween-80): 0 of 3 on day 11 and 1 of 3 on day 11

CCOC(=O)[C@]1(Br)CC[C@@]1(Br)C(=O)OCC
T/C (dose: 200.0 mg/kg/injection, schedule: Q04DX004 (sc), vehicle: saline with Tween-80, evaluated on day 15): 140 % of control

CC[N](CC)[Ge]([CH2]C)[CH2]C.CC[N](CC)[Ge]([CH2]C)[CH2]C
survivor count (dose: 50.0 mg/kg/injection, schedule: Q01DX010 (sc), vehicle: suspension in saline): 0 of 2 on day 20 | survivor count (dose: 100.0 mg/kg/injection, schedule: Q01DX010 (sc), vehicle: suspension in saline): 0 of 2 on day 20

CN=S(=O)(OCCCCCOS(=O)(=NC)c1ccc(C)cc1)c1ccc(C)cc1 (centres undefined)
survivor count (dose: 300.0 mg/kg/injection, schedule: Q04DX004 (sc), vehicle: saline with Tween-80): 3 of 6 on day 15 | survivor count (dose: 600.0 mg/kg/injection, schedule: Q04DX004 (sc), vehicle: saline with Tween-80): 1 of 6 on day 15 | survivor count (dose: 1200.0 mg/kg/injection, schedule: Q04DX004 (sc), vehicle: saline with Tween-80): 0 of 6 on day 15

COc1cccc2c1C(=O)c1c(O)c3c(c(O)c1C2=O)C[C@@](O)(/C(CO)=N/NC(=O)c1ccc(Cl)c(Cl)c1)C[C@@H]3OC1CC(N)C(O)C(C)O1 (some centres undefined)
survivor count (dose: 16.0 mg/kg/injection, schedule: Q01DX010 (sc), vehicle: water): 1 of 2 on day 20 | survivor count (dose: 32.0 mg/kg/injection, schedule: Q01DX010 (sc), vehicle: water): 0 of 3 on day 20 | survivor count [4]: 1 of 3 on day 15 | survivor count [5]: 1 of 3 on day 15

COc1ccc(-c2cc(C(=O)Nc3cc(C(F)(F)F)cc(C(F)(F)F)c3)c3ccccc3n2)cc1
T/C (dose: 150.0 mg/kg/injection, schedule: Q04DX004 (ip), vehicle: DMSO, evaluated on day 15): 135 % of control | survivor count (dose: 1200.0 mg/kg/injection, schedule: Q04DX004 (ip), vehicle: DMSO): 1 of 6 on day 15
